Assay results as given in US20230061352A1, “DRUG DELIVERY DEVICE” (priority 2020, published 2023).

Test: LCMS drug levels in porcine serum from the internal jugular vein
Format: in vivo, pig
Details: released from implanted device; 0, 1, 2, 4, 24, 48, 72, 120, 240, 336 hrs; FIGS. 14 and 15
Text: Devices produced in accordance with the methods of EXAMPLE 1 were implanted into tonsillectomized pigs.
The specific LCMS method used for detection of Bupivacaine and Lidocaine has been validated in work by Hoizey et al (2005) (Hoizey G, et al. Sensitive bioassay of bupivacaine in human plasma by liquid-chromatography-ion trap mass spectrometry. Journal of pharmaceutical and biomedical analysis. 2005; 39:587-92).
The specific LCMS method used for detection of Bupivacaine and Lidocaine has been validated in work by Hoizey et al (2005).

CCN(CC)CC(=O)Nc1c(C)cccc1C [lignocaine]
drug level detected in serum (systemic uptake): < 5.6 microgram per ml
